Consider one molecule from paper PMC5228053.

Sequences of proteins named here, by UniProt entry; tags and fusion partners are left off.
UniProt P14618: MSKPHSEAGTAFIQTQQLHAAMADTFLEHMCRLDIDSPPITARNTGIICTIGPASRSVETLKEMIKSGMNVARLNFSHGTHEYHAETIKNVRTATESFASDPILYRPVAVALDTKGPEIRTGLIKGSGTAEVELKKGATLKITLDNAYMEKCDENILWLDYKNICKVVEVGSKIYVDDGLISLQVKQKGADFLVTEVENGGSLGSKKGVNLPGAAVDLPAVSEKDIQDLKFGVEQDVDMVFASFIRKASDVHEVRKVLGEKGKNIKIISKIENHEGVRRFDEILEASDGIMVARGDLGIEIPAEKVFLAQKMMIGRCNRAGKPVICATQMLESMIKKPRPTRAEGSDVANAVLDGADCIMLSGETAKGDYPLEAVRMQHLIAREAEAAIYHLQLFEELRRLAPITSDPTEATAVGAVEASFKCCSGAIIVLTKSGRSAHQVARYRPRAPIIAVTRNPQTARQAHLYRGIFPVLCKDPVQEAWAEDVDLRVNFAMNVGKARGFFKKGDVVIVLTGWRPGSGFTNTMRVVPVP

The target in the experiment is pyruvate kinase type M2 (PKM2) (human (endogenous in A549)) (UniProt P14618). Description: co-IP; endogenous proteins; A549 cell lysate pre-cleared with control IgG (legend: isolated exosome fraction from A549 cells); IP with anti-SNAP-23 or anti-PKM2 antibody or normal IgG, protein G-agarose; lysis buffer 20 mM Tris-HCl, 150 mM NaCl, 0.5% Nonidet P-40, 2 mM EDTA, 0.5 mM DTT, pH 7.4; blotted in a cross manner.

Results are given in words; binding and its absence hold for the method and conditions named. Binding seen in cells or lysates may run through a third protein. Some entries that bind do so weakly or less than the wild type.

B1: synaptosome-associated protein 23 (SNAP-23) (protein, UniProt O00161 1-211)
chain: MDNLSSEEIQQRAHQITDESLESTRRILGLAIESQDAGIKTITMLDEQKEQLNRIEEGLDQINKDMRETEKTLTELNKCCGLCVCPCNRTKNFESGKAYKTTWGDGGENSPCNVVSKQPGPVTNGQLQQPTTGAASGGYIKRITNDAREDEMEENLTQVGSILGNLKDMALNIGNEIDAQNPQIKRITDKADTNRDRIDIANARAKKLIDS
Turning to B1, the binding entry was “binds”.
